Values quoted from earlier work, collected in patent US20240238284A1, “COMPOUNDS AND COMPOSITIONS FOR THE TREATMENT OF MPNST” (Novartis AG, priority 2021, published 2024).
For at least one compound, name, drawing or mass did not settle the structure.

System: NF1-related pNF
Conditions: children with NF1-related pNF, NCT01362803; cited from earlier work

Cn1cnc2c(F)c(Nc3ccc(Br)cc3Cl)c(C(=O)NOCCO)cc21 [selumetinib]
partial responses, share of children: 71%
